Reference: patent publication US8293758B2, “Substituted spirocyclic cyclohexane derivatives” (dated 2012)

Protein sequences, listed by entry. Tags and fused reporters are not part of them.
UniProt P41146, whole entry: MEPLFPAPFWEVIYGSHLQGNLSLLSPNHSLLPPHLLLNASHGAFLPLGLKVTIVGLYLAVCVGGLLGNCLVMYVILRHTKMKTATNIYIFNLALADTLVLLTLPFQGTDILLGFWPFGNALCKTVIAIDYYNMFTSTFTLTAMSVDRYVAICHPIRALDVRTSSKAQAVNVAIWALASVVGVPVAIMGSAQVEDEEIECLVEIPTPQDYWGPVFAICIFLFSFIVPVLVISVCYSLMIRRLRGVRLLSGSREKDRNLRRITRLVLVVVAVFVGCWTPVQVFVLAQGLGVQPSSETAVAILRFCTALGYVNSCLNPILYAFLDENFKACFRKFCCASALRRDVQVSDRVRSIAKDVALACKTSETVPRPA
UniProt P35372, whole entry: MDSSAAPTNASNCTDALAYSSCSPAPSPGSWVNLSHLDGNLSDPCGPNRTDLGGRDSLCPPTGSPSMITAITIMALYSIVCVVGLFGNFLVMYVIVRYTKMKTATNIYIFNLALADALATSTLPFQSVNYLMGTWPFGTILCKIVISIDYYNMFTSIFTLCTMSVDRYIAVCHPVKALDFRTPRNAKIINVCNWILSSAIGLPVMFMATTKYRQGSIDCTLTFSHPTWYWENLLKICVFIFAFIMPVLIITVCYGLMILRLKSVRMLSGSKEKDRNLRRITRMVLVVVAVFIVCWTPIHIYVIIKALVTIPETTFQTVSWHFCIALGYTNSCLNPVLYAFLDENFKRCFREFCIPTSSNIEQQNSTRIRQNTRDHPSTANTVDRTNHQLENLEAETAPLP

Experiments:
ORL 1-receptor = ORL 1-receptor (Homo sapiens, UniProt P41146); assay: ORL 1 receptor binding assay with 3H-nociceptine/orphanin FQ (WGA-SPA beads); details: membranes of recombinant CHO-ORL 1 cells, 0.5 nM 3H-nociceptine/orphanin FQ; for Ki: read-out: Ki (ORL1) Mean, mean; for % Inhibition (ORL1) [1 μM]: test concentration 1 μM
human μ-opiate receptor = human μ-opiate receptor (Homo sapiens, UniProt P35372); assay: μ-opiate receptor binding assay with [3H]-naloxone (WGA-SPA beads); details: CHO-K1 membrane preparation, 1 nmol/l [3H]-naloxone; for Ki: read-out: Ki (μ) Mean, Cheng-Prusoff, mean; for % Inhibition (μ) [1 μM]: test concentration 1 μM

`COC(=O)CC1CC(c2ccccc2)(N(C)C)CCC12OCCc1c2[nH]c2ccccc12` (single isomer, unassigned) [Ex. 14] was tested. Which Ki (ORL 1-receptor) did it give?
The Ki was 6 nM.

And the “% Inhibition (ORL1) [1 μM]” value (ORL 1-receptor)?
Its value is 94%.

And the Ki (human μ-opiate receptor)?
The Ki was 3 nM.

And the “% Inhibition (μ) [1 μM]” value (human μ-opiate receptor)?
The value was 101%.

For `COC(=O)CC1CC(c2ccccc2)(N(C)C)CCC12OCCc1c2[nH]c2ccccc12` (single isomer, unassigned) [Ex. 15], which Ki (ORL 1-receptor) is on record?
The Ki was 335 nM.

What about the “% Inhibition (ORL1) [1 μM]” value (ORL 1-receptor) of the same molecule?
Its value is 33%.

What about the Ki (human μ-opiate receptor) of the same molecule?
The Ki was 165 nM.

And the “% Inhibition (μ) [1 μM]” value (human μ-opiate receptor)?
Its value is 68%.

The match of structure and compound is tentative.
